Record: PubChem BioAssay AID1259405 (NCATS, 2018)

Aim: 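Silenced genes that increase secreted GFP made by CHO cells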 (primary screen)
System: Chinese hamster CHO-K1 ovary cells with stable secreted eGFP expression
Reagent: single siRNA against mouse genes, 0.8 pmol siRNA per well (2 µl of 400 nM stock)
Time to read-out: 3 days
Measurement: 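Percent of the per-plate non-targeting control median for intracellular GFP per well by laser scanning cytometry and for cell viability by ATP luminescence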
Reading the numbers: GFP, % of control: higher = more GFP per well, higher productivity; viability (ATP), % of control: higher = more viable cells (more ATP)
Rule for the call: 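a knock-down is called active if GFP reaches 120% or more of non-targeting control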
Shown is one part, drawn at random, of about 50,000 deposited reagents. About 4,000 of them (8%) were called active. 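Mouse siRNA library applied to hamster cells; one well for each siRNA.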

| gene symbol | PubChem SID | GFP, % of control | viability (ATP), % of control | Outcome |
| --- | --- | --- | --- | --- |
| Poln | SID363569554 | 123 | 69.7 | active |
| Poln | SID363577298 | 69.8 | 84.2 | inactive |
| Poln | SID363578706 | 83.4 | 88.9 | inactive |
| Smpdl3a | SID363569403 | 77.5 | 87.3 | inactive |
| Smpdl3a | SID363577147 | 57.2 | 67.8 | inactive |
| Smpdl3a | SID363578555 | 126 | 52.9 | active |
| Tyr | SID363568792 | 163 | 81.9 | active |
| Tyr | SID363576184 | 82.3 | 68 | inactive |
| Tyr | SID363579000 | 85.9 | 69.5 | inactive |
| Tgtp1 | SID363556530 | 41.9 | 65.6 | inactive |
| Tgtp1 | SID363586980 | 84 | 99.9 | inactive |
| Tgtp1 | SID363589088 | 83.4 | 132 | inactive |
| Nat8l | SID363545336 | 131 | 90.7 | active |
| Nat8l | SID363548849 | 70.2 | 73.4 | inactive |
| Nat8l | SID363562655 | 22.6 | 34.4 | inactive |
| Ercc6 | SID363569737 | 101 | 96.8 | inactive |
| Ercc6 | SID363576777 | 57.4 | 50.9 | inactive |
| Ercc6 | SID363578185 | 54.9 | 76.4 | inactive |
| Entrep3 | SID363540778 | 93.1 | 77.5 | inactive |
| Entrep3 | SID363543229 | 83.8 | 84.8 | inactive |
| Entrep3 | SID363552722 | 90.9 | 64.9 | inactive |
| Il4 | SID363582438 | 126 | 125 | active |
| Il4 | SID363584198 | 80 | 81.3 | inactive |
| Islr | SID363568696 | 109 | 98.2 | inactive |
| Islr | SID363576088 | 65.2 | 37.7 | inactive |
| Islr | SID363578904 | 87.7 | 63.4 | inactive |
| Rnf40 | SID363555091 | 84.6 | 72.8 | inactive |
| Rnf40 | SID363568538 | 48 | 57.2 | inactive |
| Rnf40 | SID363586597 | 79.2 | 91.9 | inactive |

Look-ups from above.
Value for Poln [SID363577298] under “Outcome”: inactive
Entry for Nat8l [SID363545336] under “GFP, % of control”: 131
Under “Outcome”, Ercc6 [SID363578185] has inactive
Entrep3 [SID363543229], GFP, % of control → 83.8
Value of Ercc6 [SID363569737] under “viability (ATP), % of control”: 96.8
Result of Tyr [SID363576184] in “viability (ATP), % of control”: 68

The results go on.
| gene symbol | PubChem SID | GFP, % of control | viability (ATP), % of control | Outcome |
| --- | --- | --- | --- | --- |
| Yif1b | SID363556777 | 102 | 98.9 | inactive |
| Yif1b | SID363563681 | 46 | 49.3 | inactive |
| Yif1b | SID363587227 | 104 | 89.7 | inactive |
| Or2f2 | SID363544427 | 63.6 | 67.6 | inactive |
| Or2f2 | SID363550755 | 221 | 71.4 | active |
| Or2f2 | SID363557304 | 64.6 | 66.2 | inactive |
| Khsrp | SID363546108 | 122 | 104 | active |
| Khsrp | SID363549621 | 78.9 | 95.8 | inactive |
| Khsrp | SID363563427 | 91.7 | 54.8 | inactive |
| Tas2r125 | SID363556543 | 18.3 | 32.2 | inactive |
| Tas2r125 | SID363586993 | 65.2 | 65.9 | inactive |
| Tas2r125 | SID363589101 | 94.5 | 71.5 | inactive |
| Dynlrb1 | SID363572399 | 85.9 | 94.8 | inactive |
| Dynlrb1 | SID363574159 | 46.3 | 58.5 | inactive |
| Erv3 | SID363540726 | 127 | 110 | active |
| Erv3 | SID363543177 | 93.4 | 83.4 | inactive |
| Erv3 | SID363552670 | 74.7 | 45.8 | inactive |
| Ccdc80 | SID363543886 | 129 | 83.1 | active |
| Ccdc80 | SID363551622 | 44.1 | 34 | inactive |
| Ccdc80 | SID363559227 | 79.1 | 99.2 | inactive |
| Cel | SID363569722 | 48 | 35.5 | inactive |
| Cel | SID363576762 | 75.3 | 70.3 | inactive |
| Cel | SID363578170 | 72.7 | 53.7 | inactive |
| Lsm14a | SID363543904 | 37.3 | 55.7 | inactive |
| Lsm14a | SID363551640 | 67.6 | 97.4 | inactive |
| Lsm14a | SID363559245 | 191 | 111 | active |
| Slpi | SID363573135 | 90.8 | 61 | inactive |
| Slpi | SID363577711 | 90 | 56.8 | inactive |
| Slpi | SID363581231 | 37 | 58.8 | inactive |
